# Test results taken from the supplement of paper PMC4604168 (melanoma cell lines).
# Some of the results follow. Many values rest on one well or one pass, so single values are uncertain.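 The apoptosis fraction was the count of cleaved-PARP antibody-stained nuclei relative to all DNA-stained nuclei, imaged in 1,536-well plates. Screening doses were set so most cells survived, and baseline and induced cleaved-PARP levels vary greatly across cell lines.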
# Test system: MEL-HO
# Test: cleaved PARP positive nuclei fraction relative to DMSO control; melanoma cells; higher = more apoptosis
# Settings: library dose: low library concentration; 72 h
row,Compound,cleaved PARP positive nuclei fraction
1,"COc1cc([C@@H]2c3cc4c(cc3[C@@H](O[C@@H]3O[C@@H]5CO[C@@H](C)O[C@H]5[C@H](O)[C@H]3O)[C@H]3COC(=O)[C@H]23)OCO4)cc(OC)c1O [etoposide] + CN(NC(=O)CC(=O)NN(C)C(=S)c1ccccc1)C(=S)c1ccccc1 [STA4783] (first compound 0.02 µM, partner dose 0.006 µM)",71.1%
2,"O=C(Nc1cc(C(F)(F)F)cc(C(F)(F)F)c1)c1cc(Cl)ccc1O + O=C(Nc1cccc(Cl)c1)Nc1ncc(CCNc2ncnc3ccsc23)s1 [SNS314] (first compound 0.016 µM, partner dose 0.0008 µM)",53.4%
3,"Cc1cn(-c2cc(NC(=O)c3ccc(C)c(Nc4nccc(-c5cccnc5)n4)c3)cc(C(F)(F)F)c2)cn1 [nilotinib] + NC(=O)Nc1cc(-c2cccc(F)c2)sc1C(=O)N[C@H]1CCCNC1 [AZD7762] (first compound 0.2 µM, partner dose 0.02 µM)",96.7%
4,"Cc1cn(-c2cc(NC(=O)c3ccc(C)c(Nc4nccc(-c5cccnc5)n4)c3)cc(C(F)(F)F)c2)cn1 [nilotinib] + O=C(O)c1ccc(-c2c[nH]c3ncc(-c4ccccc4)cc23)cc1C1CCCC1 [GSK650394] (first compound 0.2 µM, partner dose 0.16 µM)",154%
5,"O=C(/C=C/c1cccnc1)NCCCCC1CCN(C(=O)c2ccccc2)CC1 + CC(C)(C)c1cnc(CSc2cnc(NC(=O)C3CCNCC3)s2)o1 [SNS-032] (first compound 0.01 µM, partner dose 0.01 µM)",145%
6,"Cc1cn(-c2cc(NC(=O)c3ccc(C)c(Nc4nccc(-c5cccnc5)n4)c3)cc(C(F)(F)F)c2)cn1 [nilotinib] + O=C(CCCCCCC(=O)Nc1ccccc1)NO [vorinostat] (first compound 0.2 µM, partner dose 0.08 µM)",71.4%
7,"N#CC[C@H](C1CCCC1)n1cc(-c2ncnc3[nH]ccc23)cn1 [ruxolitinib] + O=C(O)c1ccc(-c2c[nH]c3ncc(-c4ccccc4)cc23)cc1C1CCCC1 [GSK650394] (first compound 1 µM, partner dose 0.16 µM)",62.5%
8,"O=C(Nc1cc(C(F)(F)F)cc(C(F)(F)F)c1)c1cc(Cl)ccc1O + CO[C@@H]1[C@H](N(C)C(=O)c2ccccc2)C[C@H]2O[C@]1(C)n1c3ccccc3c3c4c(c5c6ccccc6n2c5c31)C(=O)NC4 [Midostaurin] (first compound 0.016 µM, partner dose 0.08 µM)",49%
9,"N#CC[C@H](C1CCCC1)n1cc(-c2ncnc3[nH]ccc23)cn1 [ruxolitinib] + Cc1ccc(NC(=O)c2cccc(N(C)C)c2)cc1NC(=O)c1ccc(O)cc1 [ZM336372] (first compound 1 µM, partner dose 2 µM)",65%
10,"N#CC[C@H](C1CCCC1)n1cc(-c2ncnc3[nH]ccc23)cn1 [ruxolitinib] + CC1(C)NC(=O)N(c2ccc([N+](=O)[O-])c(C(F)(F)F)c2)C1=O [nilutamide] (first compound 1 µM, partner dose 1 µM)",63.8%
11,"CC[C@]1(O)C[C@H]2CN(CCc3c([nH]c4ccccc34)[C@@](C(=O)OC)(c3cc4c(cc3OC)N(C=O)[C@H]3[C@@](O)(C(=O)OC)[C@H](OC(C)=O)[C@]5(CC)C=CCN6CC[C@]43[C@@H]65)C2)C1 [vincristine] + O=C(Nc1cccc(Cl)c1)Nc1ncc(CCNc2ncnc3ccsc23)s1 [SNS314] (first compound 0.0001 µM, partner dose 0.0008 µM)",73%
12,"Cc1cn(-c2cc(NC(=O)c3ccc(C)c(Nc4nccc(-c5cccnc5)n4)c3)cc(C(F)(F)F)c2)cn1 [nilotinib] + CC(C)(C)c1cnc(CSc2cnc(NC(=O)C3CCNCC3)s2)o1 [SNS-032] (first compound 0.2 µM, partner dose 0.01 µM)",99.8%
13,"COc1cc([C@@H]2c3cc4c(cc3[C@@H](O[C@@H]3O[C@@H]5CO[C@@H](C)O[C@H]5[C@H](O)[C@H]3O)[C@H]3COC(=O)[C@H]23)OCO4)cc(OC)c1O [etoposide] + NC(=O)Nc1cc(-c2cccc(F)c2)sc1C(=O)N[C@H]1CCCNC1 [AZD7762] (first compound 0.02 µM, partner dose 0.02 µM)",268%
14,"Cc1cc(Nc2cc(N3CCN(C)CC3)nc(Sc3ccc(NC(=O)C4CC4)cc3)n2)n[nH]1 [Tozasertib] + Cn1cncc1[C@@](N)(c1ccc(Cl)cc1)c1ccc2c(c1)c(-c1cccc(Cl)c1)cc(=O)n2C [tipifarnib] (first compound 0.006 µM, partner dose 0.01 µM)",130%
15,"Cc1ccc(Nc2nccc(N(C)c3ccc4c(C)n(C)nc4c3)n2)cc1S(N)(=O)=O [Pazopanib] + Cn1cncc1[C@@](N)(c1ccc(Cl)cc1)c1ccc2c(c1)c(-c1cccc(Cl)c1)cc(=O)n2C [tipifarnib] (first compound 0.4 µM, partner dose 0.01 µM)",448%
16,"Cc1cc(Nc2cc(N3CCN(C)CC3)nc(Sc3ccc(NC(=O)C4CC4)cc3)n2)n[nH]1 [Tozasertib] + Cc1ccc(NC(=O)c2cccc(N(C)C)c2)cc1NC(=O)c1ccc(O)cc1 [ZM336372] (first compound 0.006 µM, partner dose 2 µM)",278%
17,"CC[C@]1(O)C[C@H]2CN(CCc3c([nH]c4ccccc34)[C@@](C(=O)OC)(c3cc4c(cc3OC)N(C=O)[C@H]3[C@@](O)(C(=O)OC)[C@H](OC(C)=O)[C@]5(CC)C=CCN6CC[C@]43[C@@H]65)C2)C1 [vincristine] + CC1(C)NC(=O)N(c2ccc([N+](=O)[O-])c(C(F)(F)F)c2)C1=O [nilutamide] (first compound 0.0001 µM, partner dose 1 µM)",134%
18,"N#CC[C@H](C1CCCC1)n1cc(-c2ncnc3[nH]ccc23)cn1 [ruxolitinib] + CO[C@@H]1[C@H](N(C)C(=O)c2ccccc2)C[C@H]2O[C@]1(C)n1c3ccccc3c3c4c(c5c6ccccc6n2c5c31)C(=O)NC4 [Midostaurin] (first compound 1 µM, partner dose 0.08 µM)",36.2%
19,"CCCCCCCCCCCCCCCCCCOP(=O)([O-])OC1CC[N+](C)(C)CC1 [Perifosine] + COc1cc2c(Oc3ccc4[nH]c(C)cc4c3F)ncnc2cc1OCCCN1CCCC1 [cediranib] (first compound 0.4 µM, partner dose 0.4 µM)",70.2%
20,"N#CC[C@H](C1CCCC1)n1cc(-c2ncnc3[nH]ccc23)cn1 [ruxolitinib] + COc1cc2c(Oc3ccc4[nH]c(C)cc4c3F)ncnc2cc1OCCCN1CCCC1 [cediranib] (first compound 1 µM, partner dose 0.4 µM)",98%
21,"O=C(/C=C/c1cccnc1)NCCCCC1CCN(C(=O)c2ccccc2)CC1 + O=C(O)c1ccc(-c2c[nH]c3ncc(-c4ccccc4)cc23)cc1C1CCCC1 [GSK650394] (first compound 0.01 µM, partner dose 0.16 µM)",807%
22,"Cc1cc(Nc2cc(N3CCN(C)CC3)nc(Sc3ccc(NC(=O)C4CC4)cc3)n2)n[nH]1 [Tozasertib] + NCC(=O)Nc1ccc(-n2nc(C(F)(F)F)cc2-c2ccc3c(ccc4ccccc43)c2)cc1 [OSU03012] (first compound 0.006 µM, partner dose 1 µM)",43.5%
23,"Cc1cn(-c2cc(NC(=O)c3ccc(C)c(Nc4nccc(-c5cccnc5)n4)c3)cc(C(F)(F)F)c2)cn1 [nilotinib] + CO[C@@H]1[C@H](N(C)C(=O)c2ccccc2)C[C@H]2O[C@]1(C)n1c3ccccc3c3c4c(c5c6ccccc6n2c5c31)C(=O)NC4 [Midostaurin] (first compound 0.2 µM, partner dose 0.08 µM)",31.7%
24,"Cc1ccc(Nc2nccc(N(C)c3ccc4c(C)n(C)nc4c3)n2)cc1S(N)(=O)=O [Pazopanib] + CN(NC(=O)CC(=O)NN(C)C(=S)c1ccccc1)C(=S)c1ccccc1 [STA4783] (first compound 0.4 µM, partner dose 0.006 µM)",80.7%
25,"COc1cc([C@@H]2c3cc4c(cc3[C@@H](O[C@@H]3O[C@@H]5CO[C@@H](C)O[C@H]5[C@H](O)[C@H]3O)[C@H]3COC(=O)[C@H]23)OCO4)cc(OC)c1O [etoposide] + Cc1ccc(NC(=O)c2cccc(N(C)C)c2)cc1NC(=O)c1ccc(O)cc1 [ZM336372] (first compound 0.02 µM, partner dose 2 µM)",106%
26,"O=C(/C=C/c1cccnc1)NCCCCC1CCN(C(=O)c2ccccc2)CC1 + CN(NC(=O)CC(=O)NN(C)C(=S)c1ccccc1)C(=S)c1ccccc1 [STA4783] (first compound 0.01 µM, partner dose 0.006 µM)",343%

# A second format for part of the listing above:
row	Compound	cleaved PARP positive nuclei fraction
19	CCCCCCCCCCCCCCCCCCOP(=O)([O-])OC1CC[N+](C)(C)CC1 [Perifosine] + COc1cc2c(Oc3ccc4[nH]c(C)cc4c3F)ncnc2cc1OCCCN1CCCC1 [cediranib] (first compound 0.4 µM, partner dose 0.4 µM)	70.2%
20	N#CC[C@H](C1CCCC1)n1cc(-c2ncnc3[nH]ccc23)cn1 [ruxolitinib] + COc1cc2c(Oc3ccc4[nH]c(C)cc4c3F)ncnc2cc1OCCCN1CCCC1 [cediranib] (first compound 1 µM, partner dose 0.4 µM)	98%
